At least one compound was matched to its structure with a doubt left.
What was measured:
IL-22 [1] = assay: IL-22 release ELISA, InflammaSkin ex vivo human skin psoriasis model; type: cell-based; details: Example 1; Day 7; 0.05% Betamethasone topical Day 1-6; compared to InflammaSkin controls
InflammaSkin® models = assay: Hematoxylin & Eosin (H&E) staining of InflammaSkin models (skin structure, integrity, viability); type: cell-based, human; details: Example 1; Day 7; Day 1-6: 1 μM Otezla or SCFA (45 μg/mL Ca-propionate + 1 mM Ca-/Mg-butyrate) systemic, 0.05% Betamethasone topical; vs untreated InflammaSkin
Protocol: (§1) A total of 16 biopsies of 15 mm diameter were produced from a single donor. Two NativeSkin® models with 12/15 mm silicon rings were produced from the biopsies according to standard procedures in place, and cultured under cell culture conditions (37° C., 5% CO2, max. humidity) for 7 days with 2 mL of standard NativeSkin® medium renewed every day. Fourteen PSO-InflammaSkin® models with 12/15 mm silicon rings were produced by inducing in situ activation and Th17/Th1 polarization of skin resident T cells with a proprietary cocktail, and cultured under cell culture conditions (37° C., 5% CO2, max. humidity) for 7 days with 2 mL of PSO-InflammaSkin® culture medium renewed every day.
(§2) From Day 1 to Day 6, models were systemically treated with 1 μM Otezla or Short Chain Fatty Acids (SCFAs), or topically treated with positive control 0.05% Betamethasone
In these experiments, the SCFAs administered were 45 μg/mL of Ca-propionate and 1 mM mixture of salts (Ca-butyrate and Mg-butyrate). […]
Skin structure and integrity and viability were evaluated using Hematoxylin & Eosin (H&E) staining following treatment with Betamethasone, […] Otezla® (Apremilast), or SCFAs comprising butyric acid and propionic acid. […] Therefore, the donor sample was determined to remain viable over the course of the culture in the absence of inflammation/T-cell activation.

K16 = assay: Anti-K16 immunostaining of InflammaSkin models; type: cell-based, human; details: Example 1; Day 7; Day 1-6: 1 μM Otezla or SCFA (45 μg/mL Ca-propionate + 1 mM Ca-/Mg-butyrate) systemic, 0.05% Betamethasone topical
Protocol: as §1, §2
In these experiments, the SCFAs administered were 45 μg/mL of Ca-propionate and 1 mM mixture of salts (Ca-butyrate and Mg-butyrate).
At Day 7, supernatants were collected and stored at −80° C. and skin models of all conditions were carefully unmolded. Skin biopsies were re-punched to eliminate the area under the silicon ring, fixed in 10% buffered formalin and processed for paraffin wax embedding. […]

IL-17A = assay: Multiplex (MSD V-PLEX) cytokine release, InflammaSkin: IL-17A; type: cell-based, human; details: Example 2; Day 7 supernatant; 1 μM Otezla or SCFA systemic, 0.05% Betamethasone topical; vs untreated InflammaSkin
Protocol: (§3) A total of 16 biopsies of 15 mm diameter were produced from a single donor. Two NativeSkin® models with 12/15 mm silicon rings were produced from the biopsies according to standard procedures in place, and cultured under cell culture conditions (37° C., 5% CO2, max. humidity) for 7 days with 2 mL of standard NativeSkin® medium renewed every day. Fourteen PSO-InflammaSkin® models with 12/15 mm silicon rings were produced by inducing in situ activation and Th17/Th1 polarization of skin resident T cells with a proprietary cocktail, and cultured under cell culture conditions (37° C., 5% CO2, max. humidity) for 7 days with 2 mL of PSO-InflammaSkin® culture medium renewed every day. […]
(§4) Human pro-inflammatory cytokines released in the supernatant were quantified using the V-PLEX Human IL-17A Kit (MesoScale Discovery, reference: K151RFD-1) and V-PLEX Human TNFα Kit (MesoScale Discovery, reference: K151QWD-1). […]
(§5) Human pro-inflammatory cytokines released in the supernatant were quantified using the V-PLEX Human IL-17A Kit (MesoScale Discovery, reference: K151RFD-1) and V-PLEX Human custom Pro-inflammatory. […]
(§6) Samples were diluted four times for plate 2 and two times for plate 1. Samples and standards were assessed in duplicate. Plates were read on MesoScale Discovery Quickpleax SQ 120 plate reader and values expressed in pg/mL. […]

TNF-α = assay: Multiplex (MSD V-PLEX) cytokine release, InflammaSkin: TNF-α; type: cell-based, human; details: Example 2; Day 7 supernatant; 1 μM Otezla or SCFA systemic, 0.05% Betamethasone topical; vs untreated InflammaSkin
Protocol: as §3, §4, §5, §6

IFN-γ = assay: Multiplex (MSD V-PLEX) cytokine release, InflammaSkin: IFN-γ; type: cell-based, human; details: Example 2; Day 7 supernatant; 1 μM Otezla or SCFA (45 μg/mL Ca-propionate + 1 mM Ca-/Mg-butyrate) systemic, 0.05% Betamethasone topical; vs untreated InflammaSkin
Protocol: as §3, §5
(§7) Samples were diluted four times for plate 2 and two times for plate 1. Samples and standards were assessed in duplicate. Plates were read on MesoScale Discovery Quickpleax SQ 120 plate reader and values expressed in pg/mL.
(§8) A statistical analysis was performed. […] First, the distribution's normality of the two compared group was assessed. […] If the two distributions were normal, the homogeneity of variances was assessed using a Fisher test on the variances. […]

IL-22 [2] = assay: Multiplex (MSD V-PLEX) cytokine release, InflammaSkin: IL-22; type: cell-based, human; details: Example 2; Day 7 supernatant; 1 μM Otezla or SCFA systemic, 0.05% Betamethasone topical; vs untreated InflammaSkin
Protocol: as §3, §5, §7, §8

IL-23 = assay: Multiplex (MSD V-PLEX) cytokine release, InflammaSkin: IL-23; type: cell-based, human; details: Example 2; Day 7 supernatant; SCFA systemic, 0.05% Betamethasone topical; three replicates

Question: Which “IL-22 levels in supernatant (ELISA)” value (IL-22 [1]) does the source give for `C[C@H]1C[C@H]2[C@@H]3CCC4=CC(=O)C=C[C@]4(C)[C@@]3(F)[C@@H](O)C[C@]2(C)[C@@]1(O)C(=O)CO` [Betamethasone] here?
Answer: Its value is “decrease in IL-22 levels”.

Question: What about the “H&E: incidence of pyknosis, vacuolization and epidermal/dermal separation” value (InflammaSkin® models) of the same molecule?
Answer: The value was “reduce the incidence of vacuolization and epidermal/dermal separation”.

Question: And the “K16 expression in the epidermis” value (K16)?
Answer: Its value is “decreased the expression of K16 in the epidermis”.

Question: And the IL-17A secretion (IL-17A)?
Answer: Its IL-17A secretion is “largely reduced”.

Question: And the TNFα secretion (TNF-α)?
Answer: Its TNFα secretion is “largely reduced”.

Question: What about the IFN-γ secretion (IFN-γ) of the same molecule?
Answer: The IFN-γ secretion was “largely reduced”.

Question: And the IL-22 secretion (IL-22 [2])?
Answer: Its IL-22 secretion is “largely reduced”.

Question: What about the “IL-23 levels (IL-23 exogenously added to culture media; many values above detection limits)” value (IL-23) of the same molecule?
Answer: Its value is “Only 1 replicate out of three reduced IL-23 levels enough for IL-23 to be within the limit of detection”.

Reference: US20260216109A1, “TREATMENT OF SKIN DISORDERS WITH SHORT CHAIN FATTY ACIDS” (Temple University-Of The Commonwealth System of Higher …, priority 2023, published 2026)
